{"source": "patent US6767916B2", "about": "(Indena S.p.A., priority 1999, dated 2004)", "tested_on": "drug-resistant breast cancer cells MDA435/LCC6-MDR", "assay": "cytostatic activity in combination with paclitaxel (SRB cell growth inhibition)", "type": "cell-based", "details": "combination versus paclitaxel alone", "experimental": "Following a five minute incubation at room temperature, plates were rinsed 5 times with 0.1% acetic acid and air dried. Bound dye was solubilized with 10 mM Tris Base (pH 10.5) for 5 min on a gyratory shaker.", "note": "Some results were stated once for a whole list of compounds, not compound by compound."}
{"smiles": "CC(C)=CCOc1ccc2c(C)cc(=O)oc2c1C(=O)C=Cc1cccnc1", "values": [{"measurement": "fold decrease of IC50 of paclitaxel in combination", "value": "3-5 fold"}]}
